The text below walks through data of US20220340666A1.

These are yes or no findings as the source states them, for the method shown. Binding can be weak; no strength is given.

For experiment [1], the target named is mouse Galectin-9 CRD2 (residues 226-353), biotinylated (mouse). Description: SPR (FIG. 6), purified Fab.
Experiment [2] has the same target. Description: phage ELISA, phage-displayed Fab. A general note: In an ELISA, binding on a coated surface is turned into a signal by an enzyme label.
Experiment [3] shares this target. Briefly: SPR, Fab over CRD2 on Avicap chip (OneStep).

B1: G9.2-15 Fab (Fab, V domains shown)
VH: EVQLVESGGGLVQPGGSLRLSCAASGFTVSSSSIHWVRQAPGKGLEWVASIYSSSGYTSYADSVKGRFTISADTSKNTAYLQMNSLRAEDTAVYYCARNVENYPYWAWPWGYYGAIDYWGQGTLVTVSS
VL: DIQMTQSPSSLSASVGDRVTITCRASQSVSSAVAWYQQKPGKAPKLLIYSASSLYSGVPSRFSGSRSGTDFTLTISSLQPEDFATYYCQQSSWGLITFGQGTKVEIKR
For B1, the binding result in experiment [1] and in experiment [2] was “binds” each time.

B2: G9.2-17mut6 Fab (Fab, V domains shown)
VH: EVQLVESGGGLVQPGGSLRLSCAASGFTVSSSSIHWVRQAPGKGLEWVAYISSSSGYTYYADSVKGRFTISADTSKNTAYLQMNSLRAEDTAVYYCARYWSYPSWSPYRGMDYWGQGTLVTVSS
VL: DIQMTQSPSSLSASVGDRVTITCRASQSVSSAVAWYQQKPGKAPKLLIYSASSLYSGVPSRFSGSRSGTDFTLTISSLQPEDFATYYCQQSSTDPITFGQGTKVEIKR
For B2, in experiment [3], the binding result is recorded as “binds”.
